# Laboratory results as given in patent publication US20140228279A1, “CATIONIC PEPTIDOPOLYSACCHARIDES WITH EXCELLENT BROAD- SPECTRUM ANTIMICROBIAL ACTIVITIES AND HIGH SELECTIVITY” (priority 2011, published 2014).
# Columns and labels:
# human red blood cells [1] = details: comparator agents (#3A-#6E), previously reported; cited from earlier work
# human red blood cells [2] = experiment: Hemolysis assay; assay type: cell-based; details: E. coli over human red blood cells
# Procedure: Fresh human blood (5 ml) was collected from a healthy donor. Erythrocytes were separated by centrifugation at 1000 rpm for 10 min, washed three times with Tris buffer (10 mM Tris, 150 mM NaCl, pH 7.2) and diluted to final concentration (5%, v/v). 50 μl of antimicrobial solution at different concentrations mixed with 50 μl erythrocytes stock were added to a 96-well microplate and incubated for 1 h at 37° C. with 150 rpm shaking. The microplate were centrifuged at 1,000 rpm for 10 min. 80 μl aliquots of the supernatant were then transferred to a new 96-well microplate and diluted with another 80 μl of Tris buffer. Hemolysis was measured as the absorbance at 540 nm with a microplate reader (BIO-RAD, US). Complete hemolysis was determined in Tris buffer plus 0.1% Triton x-100 as positive control, while Tris buffer was used as negative control. The percentage of hemolysis (H) was calculated using the following equation: Hemolysis=[(Op−Ob)/(Ot−Ob)]×100%, where Op is the density for a given antimicrobial agent concentration, Ob is the density for the buffer, and Ot is the density for the Triton x-100 positive control.
Compound,Selectivity: HC50/MIC(E. coli) (human red blood cells [1]),Selectivity: HC50/MIC(E. coli) (human red blood cells [2])
CC[C@H](C)[C@H](NC(=O)CN)C(=O)NCC(=O)N[C@@H](C)C(=O)N[C@H](C(=O)N[C@@H](CC(C)C)C(=O)N[C@@H](CCCCN)C(=O)N[C@H](C(=O)N[C@@H](CC(C)C)C(=O)N[C@H](C(=O)N[C@H](C(=O)NCC(=O)N[C@@H](CC(C)C)C(=O)N1CCC[C@H]1C(=O)N[C@@H](C)C(=O)N[C@@H](CC(C)C)C(=O)N[C@H](C(=O)N[C@@H](CO)C(=O)N[C@@H](Cc1c[nH]c2ccccc12)C(=O)N[C@H](C(=O)N[C@@H](CCCCN)C(=O)N[C@@H](CCCNC(=N)N)C(=O)N[C@@H](CCCCN)C(=O)N[C@@H](CCCNC(=N)N)C(=O)N[C@@H](CCC(N)=O)C(=O)N[C@@H](CCC(N)=O)C(N)=O)[C@@H](C)CC)[C@@H](C)CC)[C@@H](C)O)[C@@H](C)O)C(C)C)C(C)C [Melittin],0.15,
chitosan-graft-poly(lysine-ran-phenylalanine) [CS-g-K8F8],,<5
chitosan-graft-poly(lysine-ran-phenylalanine) [CS-g-K12.5F12.5],,12

# Where two headings read alike, the source gives them in different places.
